Reference: paper PMC6016461
These are yes or no findings as the source states them, for the method shown. In cells and extracts the contact can be indirect. Sequences can lack the tags named with a protein.

Target: T1, Strep-tagged NifW (A. vinelandii) (UniProt P14888)
T1 sequence: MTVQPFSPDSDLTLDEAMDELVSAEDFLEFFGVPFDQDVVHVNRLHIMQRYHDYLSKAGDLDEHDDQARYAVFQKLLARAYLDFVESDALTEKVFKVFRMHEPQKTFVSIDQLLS
Experiment: pull-down; purified Strep-tagged NafY, NifY or NifW immobilised on Strep-Tactin XT resin; A. vinelandii cell-free extract (MoFe protein without Strep-tag) passed over; anoxic buffer C (50 mM Tris-HCl pH 7.9, 2 mM Na2S2O4, 350 mM NaCl), 10 column volumes wash; eluted with 50 mM biotin; SDS-PAGE; some samples further run on Superose 12 to remove excess bait; only the target purified

binding: no binding
Substance: NafH (A. vinelandii)
